Results are given in words; binding and its absence hold for the method and conditions named. Some results given as binding are weak or reduced against the parent protein; the word gives no strength.
What was measured:
[1] = biological target: cynomolgus IL-18Rα/IL-18Rβ on transfected cells (cynomolgus); test: FACS on transfected HEK293 cells, antibody 1 µg/ml
[2] = biological target: cynomolgus IL-18Rα:Fc (cynomolgus; human); test: SPR (BIAcore 3000, 25°C), Fc-tagged variant captured, antibody 0.2 µg/ml

binding [1]	binding [2]	Binder
binds	binds	Mab 1G12 (antibody, V domains shown, Monoclonal antibody from immunized NMRI mice; detected with anti-mouse IgG1-PE / anti-mouse IgG; also called F20.1G12; monoclonal antibody 1G12) VH: QVQLQQPGAELVKPGASVRMSCKTSDYTFTSNWMHWVKQRPGQGLEWIGTIDPSDSYTYYNQKFKGRATLTVDTSSSTAYMQLSSLTSEDSAVYYCTTSGDYDADRYFDVWGAGTTVTVSS VL: DIVLTQSPASLGVSLGQRATISCRASKSVSTSGDSYMHWYQQKPGQSPKLLIYLASNLESGVPARFSGSGSGTDFTLNIHPVEEEDAATYYCQQSRELPLSFGAGTKLELK
binds	binds	Mab 2D11 (antibody, V domains shown, Monoclonal antibody from immunized NMRI mice; detected with anti-mouse IgG1-PE / anti-mouse IgG; also called F20.2D11) VH: QVQLQQPGAELVKPGASVKMSCKASDYTFTSNWMHWVKQRPGQGLEWIGTIDPSDSYTYYNQKFKGKATLTVDTSSSTAYMHLSSLTSEDSAVYYCTTSGDYDADRYFDVWGAGTTVTVSS VL: DIVLTQSPASLGVSLGQRATISCRASKSVSTSGDSYMHWYQQKPGQSPKLLIYLASNLESGVPARFSGSGSGTDFTLNIHPVEEEDAATYYCQQSRELPLSFGAGTKLELK
